Laboratory results: PubChem BioAssay AID652243 (Drosophila RNAi Screening Center, 2013)
Purpose: 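Fly regulators of androgen-dependent reporter output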 (primary screen). Cell system: Drosophila S2R+ cells. Knock-down reagent: long dsRNA against Drosophila genes. Timing: 72 h (48 h, then 24 h hormone). Treatment: synthetic androgen R1881 at 10 nM for 24 h. Measurement: 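Firefly light from an androgen-responsive reporter and Renilla control light per well, raw and unnormalised, for each of two replicates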. Scale: firefly reporter light: higher = more light from androgen-responsive reporter; Renilla control light: higher = more constitutive control signal (cell number, transfection). Hit rule: 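Across duplicate plates, a knock-down whose log firefly/Renilla ratio shifted a set fold down or up from the GFP/LacZ control mean was a hit; the downward cut appears as both 1.5 and 3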. Meaning of the calls: active = hit: reporter lowered or raised; inactive = no hit.
In all, the deposit lists about 24,000 reagents; shown is an unselected part of those with a known target gene and a result. In the full data, 246 (1%) are marked active. 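Plates not normalised; calls are printed but the firefly/Renilla ratio behind them is not deposited; fold cut for lowering reported inconsistently.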 The raw values are shown without normalisation. Reagents against one gene are numbered here. Names joined by + are all predicted targets of the reagent. Not given: the amount of reagent.

no.	gene	dsRNA no.	firefly reporter light, replicate 1	firefly reporter light, replicate 2	Renilla control light, replicate 1	Renilla control light, replicate 2	Call
1	CG11779 (GeneID 42298)	1	67149	1.09e5	5.21e5	4.87e5	inactive
2	CG43439 + CG32388	1	2.46e5	1.94e5	8.05e5	6.30e5	inactive
3	Inx6 (GeneID 31645)	1	2.61e5	1.11e5	7.42e5	2.94e5	inactive
4	Inx6 (GeneID 31645)	2	3.63e5	3.38e5	9.49e5	6.85e5	inactive
5	Mfap1 (GeneID 38256)	1	7.39e5	8.92e5	1.92e6	2.12e6	inactive
6	Mfap1 (GeneID 38256)	2	3.16e5	3.43e5	8.10e5	6.20e5	inactive
7	mRpL35 (GeneID 42588)	1	2.76e5	2.37e5	3.35e6	3.03e6	inactive
8	Ugt317A1 (GeneID 37590)	1	3.10e5	2.83e5	2.22e6	2.48e6	inactive
9	CG31031 (retired record) (GeneID 318564)	1	1.08e6	8.82e5	1.57e6	1.10e6	inactive
10	PVRAP (GeneID 38677)	1	1.12e5	1.33e5	1.24e6	1.54e6	inactive
11	DAT (GeneID 36849)	1	1.23e5	91607	1.67e6	1.67e6	inactive
12	CG34331 (GeneID 33011)	1	1.62e5	1.61e5	5.79e5	4.79e5	inactive
13	dec (GeneID 31691)	1	3.44e5	3.74e5	3.08e6	2.59e6	inactive
14	dec (GeneID 31691)	2	7.15e5	9.20e5	2.56e6	1.70e6	inactive
15	dec (GeneID 31691)	3	1.05e6	5.56e5	3.07e6	1.05e6	inactive
16	CG12609 (GeneID 32862)	1	1.97e5	1.32e5	8.14e5	2.62e5	inactive
17	CG13813 (GeneID 40218)	1	2.08e5	1.80e5	1.78e6	1.84e6	inactive
18	TfIIA-L (GeneID 43284)	1	1.14e5	72077	7.30e5	8.84e5	inactive
19	sa (GeneID 40367)	1	5.09e5	5.17e5	3.21e6	3.16e6	inactive
20	DIP-zeta (GeneID 34231)	1	2.84e5	2.43e5	1.67e6	1.54e6	inactive
21	DIP-zeta (GeneID 34231)	2	6.40e5	9.53e5	1.47e6	1.79e6	inactive
22	DIP-zeta (GeneID 34231)	3	1.36e5	1.92e5	1.59e6	1.93e6	inactive
23	CG8584 (GeneID 35856)	1	3.47e5	3.61e5	1.43e6	1.47e6	inactive
24	lms (GeneID 37322)	1	52689	66102	8.13e5	9.18e5	inactive
25	lms (GeneID 37322)	2	2.54e5	2.06e5	3.88e5	7.74e5	inactive
26	asRNA:CR43259 + CG31089	1	1.46e5	1.65e5	2.58e6	2.40e6	inactive
27	SMC6 (GeneID 42876)	1	2.29e5	2.48e5	3.39e6	3.44e6	inactive
28	SMC6 (GeneID 42876)	2	4.20e5	4.40e5	8.99e5	7.46e5	inactive
29	Npc1a (GeneID 34358)	1	1.68e5	1.19e5	8.17e5	7.78e5	inactive
30	Rox8 (GeneID 42848)	1	1.73e5	2.88e5	2.20e6	2.52e6	inactive
31	Rox8 (GeneID 42848)	2	2.48e5	4.60e5	9.43e5	9.43e5	inactive
32	Jhedup (GeneID 36779)	1	78711	82417	1.47e6	1.47e6	inactive
33	iotaTry (GeneID 36223)	1	2.35e5	94043	1.88e6	1.05e6	inactive
34	CG11360 (GeneID 43810)	1	2.60e5	3.07e5	3.71e6	3.29e6	inactive
35	Aldh7A1 (GeneID 40097)	1	55188	35261	4.40e5	3.78e5	inactive
36	CG7246 (GeneID 31833)	1	4.08e5	3.41e5	2.98e6	3.01e6	inactive
37	mirr (GeneID 39441)	1	1.29e5	85785	1.25e6	7.84e5	inactive
38	mirr (GeneID 39441)	2	6.64e5	3.49e5	9.26e5	6.53e5	inactive
39	CG13170 (GeneID 36325)	1	1.19e5	77593	7.24e5	7.31e5	inactive
40	CG13170 (GeneID 36325)	2	1.09e6	9.12e5	1.36e6	1.43e6	inactive
41	Ssb-c31a (GeneID 34120)	1	2.43e5	3.24e5	2.20e6	2.21e6	inactive
42	Ssb-c31a (GeneID 34120)	2	5.29e5	4.85e5	1.55e6	1.08e6	inactive
43	Ir56b (GeneID 37250)	1	72291	91720	9.47e5	1.06e6	inactive
44	Ir56b (GeneID 37250)	2	6.23e5	4.57e5	1.33e6	1.46e6	inactive
45	CG12730 (GeneID 31466)	1	3.35e5	3.10e5	3.29e6	2.65e6	inactive
46	Hexim (GeneID 41778)	1	38767	59351	4.10e5	4.07e5	inactive
47	Cyp4d14 (GeneID 45706)	1	2.88e5	3.14e5	3.43e6	2.85e6	inactive
48	Cyp4d14 (GeneID 45706)	2	3.89e5	4.50e5	3.81e5	4.45e5	inactive
49	sc (GeneID 30982)	1	68055	94677	2.27e6	1.93e6	inactive
50	sc (GeneID 30982)	2	1.17e6	1.03e6	1.40e6	1.25e6	inactive
51	CG10324 (GeneID 42028)	1	96138	1.36e5	1.86e6	2.42e6	inactive
52	CG12134 (GeneID 36038)	1	3.73e5	2.12e5	2.96e6	2.62e6	inactive
53	CG12134 (GeneID 36038)	2	9.46e5	8.81e5	1.16e6	1.14e6	inactive
54	Nepl5 (GeneID 33892)	1	1.25e6	9.60e5	2.12e6	2.09e6	inactive
55	Nepl5 (GeneID 33892)	2	6.60e5	6.39e5	1.32e6	1.38e6	inactive
56	COX6CL (GeneID 318868)	1	2.62e5	1.54e5	5.88e5	6.49e5	inactive
57	CG13560 (GeneID 37758)	1	3.60e5	3.05e5	2.54e6	1.74e6	inactive
58	CG13560 (GeneID 37758)	2	5.44e5	5.24e5	5.43e5	7.82e5	inactive

Taken from above.
Result for Inx6 (GeneID 31645) #2 in “Renilla control light, replicate 2”: 6.85e5
CG11360 (GeneID 43810), firefly reporter light, replicate 1 = 2.60e5
Under “Renilla control light, replicate 1”, CG12134 (GeneID 36038) #1 shows 2.96e6
For “firefly reporter light, replicate 2”, Ir56b (GeneID 37250) #2 shows 4.57e5
